PubChem BioAssay AID1259424, University of Nebraska Medical Center | 2018

Aim: 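Rank knockdowns across the genome by resemblance to the KSR1 depletion profile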 (primary screen)
Cells: human HCT116 colon cancer cells
Reagents: siRNA pool against human genes, 50 nM
Read-out: 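Six signature mRNAs by branched-DNA multiplex assay, scaled to two housekeeping genes and non-targeting median, log2; matched to mean KSR1 knockdown profile by Pearson correlation and euclidean distance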
Direction: mean correlation with KSR1 profile and KSR1 correlation: higher = expression change more like KSR1 knockdown; mean distance from KSR1 profile: higher = expression change less like KSR1 knockdown
The deposit covers about 14,000 reagents; this is a random part of them. 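Higher correlation or smaller distance means closer resemblance to KSR1 loss; control wells, including KSR1 knockdowns, recur on many plates.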 Reagents against one gene are numbered here. Some reagents were tested in more than one well and are listed for each. The record does not give: the time to read-out.

Target gene	reagent	mean correlation with KSR1 profile	mean distance from KSR1 profile	KSR1 correlation, replicate 1	KSR1 correlation, replicate 2	KSR1 correlation, replicate 3
GJA3 (GeneID 2700)	1	-0.678	4.88	-0.616	-0.727	-0.767
CXCL10 (GeneID 3627)	1	-0.0495	1.66	-0.127	-0.315	0.00866
IRX3 (GeneID 79191)	1	0.676	1.29	0.723	0.796	0.542
ILK (GeneID 3611)	1	-0.818	2.27	-0.827	-0.866	-0.826
ILK (GeneID 3611)	2	0.545	2.05	0.72	0.296	0.602
PSMA4 (GeneID 5685)	1	-0.131	4.88	0.0888	-0.424	-0.205
ADK (GeneID 132)	1	0.446	1.78	0.625	0.417	-0.0907
SLC14A1 (GeneID 6563)	1	-0.315	1.31	-0.103	-0.442	-0.307
CBY1 (GeneID 25776)	1	0.101	3.69	0.176	0.109	-0.0549
FTSJ1 (GeneID 24140)	1	-0.201	4.36	-0.185	-0.0691	-0.105
LGR4 (GeneID 55366)	1	0.723	1.44	0.669	0.781	0.634
IPO13 (GeneID 9670)	1	-0.643	1.69	-0.268	-0.565	-0.67
CD37 (GeneID 951)	1	0.0185	1.94	-0.0491	0.134	-0.227
ARB2A (GeneID 83989)	1	0.958	0.486	0.966	0.906	0.978
DSCR4 (GeneID 10281)	1	0.183	1.93	0.3	-0.0128	0.132
NPR2 (GeneID 4882)	1	0.5	1.4	0.437	0.592	0.631
NPR2 (GeneID 4882)	1	-0.1	2.06	0.0594	-0.0633	-0.122
TPST1 (GeneID 8460)	1	0.341	1.76	0.407	0.413	0.123
AKT1S1 (GeneID 84335)	1	-0.439	1.54	-0.123	-0.281	-0.65

Copied from the list:
IPO13 (GeneID 9670), mean correlation with KSR1 profile = -0.643
Under “KSR1 correlation, replicate 1”, ILK (GeneID 3611) #2 has 0.72
Under “mean correlation with KSR1 profile”, PSMA4 (GeneID 5685) shows -0.131
IRX3 (GeneID 79191), KSR1 correlation, replicate 3 → 0.542

Further records:
Target gene	reagent	mean correlation with KSR1 profile	mean distance from KSR1 profile	KSR1 correlation, replicate 1	KSR1 correlation, replicate 2	KSR1 correlation, replicate 3
TMA7 (GeneID 51372)	1	0.436	2.94	0.495	0.484	0.217
ING5 (GeneID 84289)	1	0.637	1.53	0.479	0.538	0.76
IFT88 (GeneID 8100)	1	0.537	1.91	0.658	0.604	0.408
DDOST (GeneID 1650)	1	0.203	1.63	0.347	0.171	-0.0411
APPBP2 (GeneID 10513)	1	-0.695	1.36	-0.605	-0.404	-0.827
NCAPH (GeneID 23397)	1	-0.64	1.71	-0.525	-0.432	-0.446
GRAP (GeneID 10750)	1	-0.69	2.48	-0.615	-0.735	-0.77
CRTAP (GeneID 10491)	1	0.342	1.14	0.462	0.344	0.284
TAGLN (GeneID 6876)	1	-0.674	2.96	-0.655	-0.636	-0.602
NAGLU (GeneID 4669)	1	0.0857	1.24	0.0451	0.00306	0.0774
KRT3 (GeneID 3850)	1	-0.198	1.62	-0.0386	-0.544	-0.114
KCNH6 (GeneID 81033)	1	-0.516	2.73	-0.417	-0.485	-0.522
MOCS1 (GeneID 4337)	1	-0.00262	2.46	-0.15	0.104	-0.0593
ABCA9 (GeneID 10350)	1	0.0524	0.704	0.512	-0.0364	-0.0309
RAD54B (GeneID 25788)	1	-0.0928	2.84	0.0208	-0.102	-0.135
RAD54B (GeneID 25788)	2	0.175	1.39	0.159	0.171	0.0831
COPRS (GeneID 55352)	1	-0.61	1.7	-0.222	-0.639	-0.741
AP2B1 (GeneID 163)	1	-0.744	2.26	-0.685	-0.882	-0.717
CRIP2 (GeneID 1397)	1	0.501	2.48	0.462	0.48	0.417
ASIC1 (GeneID 41)	1	-0.0349	3.85	0.0214	-0.0709	-0.202
XPO6 (GeneID 23214)	1	-0.446	2.14	-0.349	-0.547	-0.183
NUP50 (GeneID 10762)	1	-0.589	2.16	-0.365	-0.706	-0.559
PEX10 (GeneID 5192)	1	-0.179	1.22	-0.609	-0.23	0.189
OPN1MW (GeneID 2652)	1	0.302	3.37	0.485	0.493	0.153
SOS1 (GeneID 6654)	1	-0.506	4.67	-0.603	-0.515	-0.359
NELFCD (GeneID 51497)	1	-0.134	3.46	-0.157	-0.237	-0.09
TTF2 (GeneID 8458)	1	-0.0939	2.59	-0.137	0.0213	-0.183
RND1 (GeneID 27289)	1	0.643	0.79	0.789	0.639	0.428
H3C7 (GeneID 8968)	1	0.0811	1.22	0.0473	0.29	-0.0915
ZMYM5 (GeneID 9205)	1	0.504	1.61	0.291	0.493	0.604
THUMPD3 (GeneID 25917)	1	-0.0779	2.39	-0.0696	-0.191	0.0515
